The results in this text go back to US20090105119A1 (priority 2006, published 2009).

The nature of the data set: general procedure: peptide synthesis; HATU/NMM. The settings on record: late stage modification step, trifluoroacetate.
For the substance “N^2.1-(tert-Butoxycarbonyl)-N^4.10-[2-(benzyloxy)-2-oxoethyl]-D-leucyl-L-leucyl-[(3R)-3-hydroxy-L-phenylalanyl]-[(3R)-3-hydroxy-L-leucyl]-L-leucyl-D-arginyl-L-isoleucyl-L-allothreonylglycyl-[(3S)-3-hydroxy-L-β-asparaginyl]-L-serine C^1.11—O^3.3-lactone Trifluoroacetate”, the step yield was 98% of theory.

Turning to “N^4.10-(2-Aminoethyl)-D-leucyl-L-leucyl-[(3R)-3-hydroxy-L-phenylalanyl]-[(3R)-3-hydroxy-L-leucyl]-L-leucyl-D-arginyl-L-isoleucyl-L-allothreonylglycyl-[(3S)-3-hydroxy-L-asparaginyl]-L-serine C^1.11—O^3.3-lactone Tristrifluoroacetate”, the step yield is recorded as 67% of theory.

Turning to “N^2.1-(tert-Butoxycarbonyl)-D-leucyl-L-leucyl-[(3R)-3-hydroxy-L-phenylalanyl]-[(3R)-3-hydroxy-L-leucyl]-L-leucyl-D-arginyl-L-isoleucyl-L-allothreonylglycyl-[(3S)-3-hydroxy-L-aspartyl]-L-serine C^1.11—O^3.3-lactone Trifluoroacetate”, the step yield was 75% of theory.

“N^4.10-(2-Amino-2-oxoethyl)-N^2.1-(tert-butoxycarbonyl)-D-leucyl-L-leucyl-[(3R)-3-hydroxy-L-phenylalanyl]-[(3R)-3-hydroxy-L-leucyl]-L-leucyl-D-arginyl-L-isoleucyl-L-allothreonylglycyl-[(3S)-3-hydroxy-L-asparaginyl]-L-serine C^1.11—O^3.3-lactone Trifluoroacetate”: the step yield was 60% of theory.

For “N^4.10-(Carboxymethyl)-D-leucyl-L-leucyl-[(3R)-3-hydroxy-L-phenylalanyl]-[(3R)-3-hydroxy-L-leucyl]-L-leucyl-D-arginyl-L-isoleucyl-L-allothreonylglycyl-[(3S)-3-hydroxy-L-fi-asparaginyl]-L-serine C^1.11—O^3.3-lactone Bistrifluoroacetate”, the step yield is 45% of theory.

“N^4.10-(2-Amino-2-oxoethyl)-D-leucyl-L-leucyl-[(3R)-3-hydroxy-L-phenylalanyl]-[(3R)-3-hydroxy-L-leucyl]-L-leucyl-D-arginyl-L-isoleucyl-L-allothreonylglycyl-[(3S)-3-hydroxy-L-asparaginyl]-L-serine C^1.11—O^3.3-lactone Bistrifluoroacetate”: the step yield is listed as 65% of theory.

“N^4.10-(3-Morpholin-4-yl-propyl)-D-leucyl-L-leucyl-[(3R)-3-hydroxy-L-phenylalanyl]-[(3R)-3-hydroxy-L-leucyl]-L-leucyl-D-arginyl-L-isoleucyl-L-allothreonylglycyl-[(3S)-3-hydroxy-L-asparaginyl]-L-serine C^1.11—O^3.3-lactone Tristrifluoroacetate”: the step yield is recorded as 85% of theory.

“N^4.10,N^4.10-Dimethyl-D-leucyl-L-leucyl-[(3R)-3-hydroxy-L-phenylalanyl]-[(3R)-3-hydroxy-L-leucyl]-L-leucyl-D-arginyl-L-isoleucyl-L-allothreonylglycyl-[(3S)-3-hydroxy-L-asparaginyl]-L-serine C^1.11—O^3.3-lactone Bistrifluoroacetate”: the step yield is reported as 51% of theory.

As to “N^4.10-Benzyl-D-leucyl-L-leucyl-[(3R)-3-hydroxy-L-phenylalanyl]-[(3R)-3-hydroxy-L-leucyl]-L-leucyl-D-arginyl-L-isoleucyl-L-allothreonylglycyl-[(3S)-3-hydroxy-L-asparaginyl]-L-serine C^1.11—O^3.3-lactone Bistrifluoroacetate”, the step yield is given as 80% of theory.

As for “N^4.10-(Pyridin-3-yl-methyl)-D-leucyl-L-leucyl-[(3R)-3-hydroxy-L-phenylalanyl]-[(3R)-3-hydroxy-L-leucyl]-L-leucyl-D-arginyl-L-isoleucyl-L-allothreonylglycyl-[(3S)-3-hydroxy-L-asparaginyl]-L-serine C^1.11—O^3.3-lactone Tristrifluoroacetate”, the step yield was 89% of theory.

As to “N^2.1-(tert-Butoxycarbonyl)-N^4.10-[2-(2-{[bis(dimethylamino)methylene]amino}ethoxy)ethyl]-D-leucyl-L-leucyl-[(3R)-3-hydroxy-L-phenylalanyl]-[(3R)-3-hydroxy-L-leucyl]-L-leucyl-D-arginyl-L-isoleucyl-L-allothreonylglycyl-[(3S)-3-hydroxy-L-asparaginyl]-L-serine C^1.11—O^3.3-lactone Bistrifluoroacetate”, the step yield is given as 22% of theory.

Consider “N^2.1-(tert-Butoxycarbonyl)-N^4.10-(2-{[benzyloxycarbonyl]amino}ethyl)-D-leucyl-L-leucyl-[(3R)-3-hydroxy-L-phenylalanyl]-[(3R)-3-hydroxy-L-leucyl]-L-leucyl-D-arginyl-L-iso-leucyl-L-allothreonylglycyl-[(3S)-3-hydroxy-L-asparaginyl]-L-serine C^1.11-O^3.3-lactone Trifluoroacetate”, for which the step yield is given as 90% of theory.

As to “N^4.10-[2-(2-{[Bis(dimethylamino)methylene]amino}ethoxy)ethyl]-D-leucyl-L-leucyl-[(3R)-3-hydroxy-L-phenylalanyl]-[(3R)-3-hydroxy-L-leucyl]-L-leucyl-D-arginyl-L-isoleucyl-L-allothreonylglycyl-[(3S)-3-hydroxy-L-asparaginyl]-L-serine C^1.11—O^3.3-lactone Tristrifluoroacetate”, the step yield is on record as 67% of theory.

On to “N^4.10-Methyl-D-leucyl-L-leucyl-[(3R)-3-hydroxy-L-phenylalanyl]-[(3R)-3-hydroxy-L-leucyl]-L-leucyl-D-arginyl-L-isoleucyl-L-allothreonylglycyl-[(3S)-3-hydroxy-L-asparaginyl]-L-serine C^1.11—O^3.3-lactone Bistrifluoroacetate”, for which the step yield is listed as 69% of theory.

For the substance “N^4.10-(2-(Benzyloxy)-2-oxoethyl)-D-leucyl-L-leucyl-[(3R)-3-hydroxy-L-phenylalanyl]-[(3R)-3-hydroxy-L-leucyl]-L-leucyl-D-arginyl-L-isoleucyl-L-allothreonylglycyl-[(3S)-3-hydroxy-L-β-asparaginyl]-L-serine C^1.11—O^3.3-lactone Bistrifluoroacetate”, the step yield was 84% of theory.

Regarding “N^4.10-(3-Morpholin-4-ylpropyl)-D-leucyl-L-leucyl-[(3R)-3-hydroxy-L-phenylalanyl]-[(3R)-3-hydroxy-L-leucyl]-L-leucyl-D-arginyl-L-isoleucyl-L-allothreonylglycyl-[(3S)-3-hydroxy-L-asparaginyl]-L-serine C^1.11—O^3.3-lactone Tristrifluoroacetate”, the step yield was 81% of theory.

“N^4.10-(2-Hydroxyethyl)-D-leucyl-L-leucyl-[(3R)-3-hydroxy-L-phenylalanyl]-[(3R)-3-hydroxy-L-leucyl]-L-leucyl-D-arginyl-L-isoleucyl-L-allothreonylglycyl-[(3S)-3-hydroxy-L-asparaginyl]-L-serine C^1.11—O^3.3-lactone Bistrifluoroacetate”: the step yield is recorded as 66% of theory.

As for “N^4.10-(2-Aminoethyl)-N^2.1-(tert-butoxycarbonyl)-D-leucyl-L-leucyl-[(3R)-3-hydroxy-L-phenylalanyl]-[(3R)-3-hydroxy-L-leucyl]-L-leucyl-D-arginyl-L-isoleucyl-L-allothreonyl-glycyl-[(3S)-3-hydroxy-L-asparaginyl]-L-serine C^1.11—O^3.3-lactone Bistrifluoroacetate”, the step yield was 78.9% of theory.
